# The other results are listed elsewhere or left out. Shown are side measurements of this screen, not its main read-out; they come without a call. Most of these compounds were active or inconclusive in the main read-out, so they are no random draw. Potencies come from curve fits of mixed quality, noted in brackets.
# Assay: qHTS Assay for Lipid Storage Modulators in Drosophila S3 Cells;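 as to cell number change: cells counted by Cell Tracker Red CMTPX staining in the red channel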
# Conditions: BODIPY lipid droplet fluorescence, 18-24 h; for cell number change: measured here: cell count max response, cells fed with added oleic acid
# Summary of the method: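 Drosophila S3 cells got compounds at several concentrations plus oleic acid (400 uM solution). Laser-scanning cytometry with 488 nm excitation read lipid droplets at 500-530 nm and cells at 575-640 nm. Percent activity was relative to 20 uM Triacsin C.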
# [1] = measured here: lipid fluorescence (Fed channel) AC50, cells fed with added oleic acid
# [2] = measured here: cell number channel AC50, cells fed with added oleic acid
SMILES,cell number change [%],AC50 [1],AC50 [2]
O=C(NC1CCCCCC1)C(=S)NCCc1ccccc1,2.02,–,–
Cc1ccc(NC(=O)CCS(=O)(=O)c2ccc(Br)s2)cc1,–,"6.51 µM [rising, single point]",–
COC(=O)CCCC1=CC2=C(c3ccccc3)C(=O)C(C)(OC(=O)C3CCCC3)C(=O)C2=CN1CC(C)C (stereo unspecified),-16.4,"16.4 µM [falling, single point]",–
CCOC(=O)C1CCN(C(=O)CN(c2cccc(OC)c2)S(=O)(=O)c2ccccc2)CC1,9.12,–,–
Nc1nc(NC(=O)/C=C/c2ccccc2)nn1-c1ccccc1,19.6,"0.13 µM [rising, full curve, poor fit]",–
O=C(NCc1ccncc1)C1CCCN(S(=O)(=O)c2ccc(Br)cc2)C1 (stereo unspecified),–,"29.1 µM [rising, single point]",–
COc1ccc2c(c1)c(=O)c(C(=O)c1ccccc1)cn2Cc1ccc(C)cc1,24.4,"1.64 µM [rising, partial curve]",–
NNC(=O)c1ccc(COc2cccc3cccnc23)cc1,6.64,–,–
Cc1ccccc1OCCNC(=O)/C=C/c1ccccc1,42.9,"13 µM [rising, partial curve]","18.4 µM [rising, single point]"
CC(=O)c1cccc(NC(=O)CN2C(=O)NC3(CCCCCCC3)C2=O)c1,-17.3,–,–
COc1ccc(C(=O)NC(=S)Nc2ccccc2N2CCOCC2)cc1[N+](=O)[O-],–,"0.146 µM [rising, partial curve, poor fit]",–
O=C1CCC2(C(=O)O)Sc3ccccc3N12 (stereo unspecified),-57.2,–,"0.103 µM [falling, full curve, poor fit]"
O=C(CP(=O)(c1ccccc1)c1ccccc1)Nc1nc2ccc(Cl)cc2s1,–,"5.8 µM [rising, single point]",–
O=C(Nc1ccc(Br)cc1)C1C2C=CC3(O2)C1C(=O)N(CCN1CCCCC1)C3C(=O)NC1CCCCC1 (stereo unspecified),-6.05,"4.11 µM [falling, single point]",–
COc1ccc(-c2cc(C(=O)NCC3CCCO3)c3cc(C(C)C)ccc3n2)cc1 (stereo unspecified),-3.79,"11.6 µM [falling, single point]","0.058 µM [rising, partial curve]"
CC(C)CN(C(=O)COC(=O)c1ccc(Cl)c(N)c1)c1c(N)n(Cc2ccccc2)c(=O)[nH]c1=O,-36.9,"29.1 µM [falling, single point]","29.1 µM [falling, single point]"
CCCN(CCC)CCNC(=O)c1cc2c(C)nc3ccccc3c2o1,-11,"0.82 µM [rising, full curve]",–
O=C(CCCC(=O)OCC(F)(F)C(F)F)Nc1nccs1,-35.9,"4.11 µM [falling, full curve]","0.00461 µM [falling, full curve, poor fit]"
Cc1nn(-c2ncc(C(F)(F)F)cc2Cl)c(=O)n1-c1c(F)cccc1F,-22.3,–,"1.03 µM [falling, full curve, poor fit]"
CCc1ccc(N2CC(C(=O)NCCC3=CCCCC3)CC2=O)cc1 (stereo unspecified),-14.7,"23.1 µM [falling, single point]",–

# One compound at a time (already shown).
# O=C1CCC2(C(=O)O)Sc3ccccc3N12 (stereo unspecified) in the list: cell number change [%]: -57.2; AC50 [2]: 0.103 µM [falling, full curve, poor fit]
# COc1ccc(C(=O)NC(=S)Nc2ccccc2N2CCOCC2)cc1[N+](=O)[O-] in the list: AC50 [1]: 0.146 µM [rising, partial curve, poor fit]

# The list continues:

SMILES,cell number change [%],AC50 [1],AC50 [2]
COc1ccc(NC(=O)c2ccc(CN(c3cc(Cl)ccc3C)S(=O)(=O)c3ccccc3)cc2)cc1OC,54.3,–,"0.00461 µM [rising, full curve, poor fit]"
CCCCOc1ccc(S(=O)(=O)NNC(=O)C2Cc3c(ccc4ccccc34)O2)cc1 (stereo unspecified),-15.2,"0.82 µM [falling, full curve, poor fit]",–
CC(C)(C)OC(=O)CNC(=O)c1[nH]cnc1C(=O)NCCCCCNC(=O)OC(C)(C)C,0.898,"2.31 µM [falling, partial curve]",–
Cc1cc(C(=O)COC(=O)c2ccc[nH]c2=O)c(C)n1-c1ccccc1,4.75,–,"0.184 µM [falling, full curve, poor fit]"
COCc1cc(C)[nH]c(=O)c1C#N,0.771,–,–
CN(CC1CCCN(CCc2ccc(F)cc2)C1)C(=O)CCC(N)=O (stereo unspecified),10.6,–,–
Cc1ccccc1-c1nn[nH]n1,0.588,–,–
CCOC(=O)c1cnc(SCC(=O)Nc2ccc(NC(C)=O)c(OC)c2)nc1N,2.05,–,–
S=C(NCCc1ccccc1)NCC1CCCO1 (stereo unspecified),26.2,"0.13 µM [rising, full curve, poor fit]","0.058 µM [rising, full curve]"
Cc1c2cnn(CC(=O)NCCCN3CC(C)CC(C)C3)c(=O)c2c(C)n1Cc1ccc(Cl)cc1 (stereo unspecified),18.7,"29.1 µM [rising, single point]","3.26 µM [rising, single point]"
CNc1sc(C(=O)c2ccccc2F)c(N)c1-c1nc2ccccc2s1,-143,–,–
CCN(CC(=O)Nc1ccccc1C(F)(F)F)C(=O)CCOc1ccccc1C,11,"29.1 µM [falling, partial curve, poor fit]",–
N#CC1=C(N)N2C(=C(C#N)C1c1ccccc1)Sc1ccccc12 (stereo unspecified),12.3,"0.731 µM [rising, full curve, poor fit]",–
COc1cc(/C=C2\SC(N)=NC2=O)cc(Br)c1O,16.1,"29.1 µM [falling, single point]",–
O=C(OCC(=O)N1CCCc2ccccc21)c1cc(S(=O)(=O)N2CCOCC2)ccc1O,-36.7,"18.4 µM [falling, single point]","29.1 µM [falling, single point]"
CC(C)(C)C(=O)Nc1nnc(SCC(=O)Nc2nccs2)s1,-15.1,"29.1 µM [falling, single point]",–
COc1ccc([C@H]2CC(=O)C=C(c3cccc4c3Oc3ccccc3S4)C2)cc1OC,-36.5,"4.61 µM [falling, single point]","25.9 µM [falling, single point]"
O=C(NC1CC1)C1=C[C@H](c2csc3ccccc23)C[C@H](OCc2ccc(CO)cc2)O1,–,"0.326 µM [falling, partial curve, poor fit]",–
CCOCC(=O)Nc1ccc2c(c1)N(S(=O)(=O)c1cccs1)CCC2,–,–,"3.26 µM [rising, partial curve]"

# Reference: PubChem BioAssay AID2685 (National Center for Advancing Translational Sciences (NCATS), 2010)
